Measurements as given in patent US20250326856A1.
No constants are given. Whether binding was seen depends on the method and setting. Some entries that bind do so weakly or less than the wild type.

The chains behind the UniProt entries cited, without tags or fusion partners. Where a name states a change or a piece, a line headed by the entry shows the natural chain unless it says otherwise.
UniProt P08575: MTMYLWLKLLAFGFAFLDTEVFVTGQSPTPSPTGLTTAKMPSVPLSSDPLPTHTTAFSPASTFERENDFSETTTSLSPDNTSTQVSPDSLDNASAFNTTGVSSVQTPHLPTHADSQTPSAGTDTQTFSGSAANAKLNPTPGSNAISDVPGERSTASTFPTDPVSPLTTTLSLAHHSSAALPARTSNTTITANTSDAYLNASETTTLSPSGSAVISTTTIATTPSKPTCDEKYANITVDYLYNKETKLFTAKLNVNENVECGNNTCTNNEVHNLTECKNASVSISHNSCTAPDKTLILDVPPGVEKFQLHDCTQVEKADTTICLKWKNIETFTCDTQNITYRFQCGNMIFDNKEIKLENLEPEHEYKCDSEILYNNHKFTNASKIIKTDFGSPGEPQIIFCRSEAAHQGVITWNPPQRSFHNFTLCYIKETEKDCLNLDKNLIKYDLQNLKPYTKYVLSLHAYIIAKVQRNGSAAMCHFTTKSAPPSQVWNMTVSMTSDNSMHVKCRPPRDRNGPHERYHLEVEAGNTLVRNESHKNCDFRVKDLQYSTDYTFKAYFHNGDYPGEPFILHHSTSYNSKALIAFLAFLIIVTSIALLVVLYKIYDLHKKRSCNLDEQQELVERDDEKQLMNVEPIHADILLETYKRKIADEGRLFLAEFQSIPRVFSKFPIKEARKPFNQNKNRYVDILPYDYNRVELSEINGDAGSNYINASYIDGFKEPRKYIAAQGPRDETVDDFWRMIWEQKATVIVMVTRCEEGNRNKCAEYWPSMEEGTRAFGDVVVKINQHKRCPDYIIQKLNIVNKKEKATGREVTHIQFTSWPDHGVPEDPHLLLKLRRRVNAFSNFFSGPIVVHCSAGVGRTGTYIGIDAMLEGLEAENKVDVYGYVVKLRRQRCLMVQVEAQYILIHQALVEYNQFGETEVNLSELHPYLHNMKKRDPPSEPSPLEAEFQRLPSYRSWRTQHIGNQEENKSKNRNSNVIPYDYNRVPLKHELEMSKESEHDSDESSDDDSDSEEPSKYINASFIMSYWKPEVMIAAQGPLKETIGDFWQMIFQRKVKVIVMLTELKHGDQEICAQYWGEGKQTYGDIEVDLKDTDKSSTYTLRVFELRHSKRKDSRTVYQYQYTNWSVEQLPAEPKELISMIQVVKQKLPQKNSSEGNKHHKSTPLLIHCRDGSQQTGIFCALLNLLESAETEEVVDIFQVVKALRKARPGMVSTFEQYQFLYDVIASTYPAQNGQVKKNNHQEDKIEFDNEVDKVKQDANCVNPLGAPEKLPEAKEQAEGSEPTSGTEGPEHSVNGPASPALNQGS

Biological target: CD45 (PTPRC) on human lymphoid CD45-positive RS4;11 cells (human) (UniProt P08575)
Experiment: flow cytometry, RS4;11 CD45+ vs CD45 knockout cells, 5 µg/mL antibody, PE goat anti-human IgG

- binding: binds
B1: chimeric BC8 (murine BC8 variable regions, human constant regions) (antibody, V domains shown)
VH: EVKLLESGGGLVQPGGSLKLSCAASGFDFSRYWMSWVRQAPGKGLEWIGEINPTSSTINFTPSLKDKVFISRDNAKNTLYLQMSKVRSEDTALYYCARGNYYRYGDAMDYWGQGTSVTVSS
VL: DIALTQSPASLAVSLGQRATISCRASKSVSTSGYSYLHWYQQKPGQPPKLLIYLASNLESGVPARFSGSGSGTDFTLNIHPVEEEDAATYYCQHSRELPFTFGSGTKLEIK
